From article doi:10.1101/209874
No constants are given. Whether binding was seen depends on the method and setting. Binding can be weak; no strength is given. Sequences can lack the tags named with a protein. For some assays here: In cells and extracts the contact can be indirect.

Key:
[1] = target: T1, Arabidopsis thaliana eIF(iso)4E-BD (LexA DNA-binding domain fusion) (Arabidopsis thaliana) (UniProt O04663); assay: two-hybrid
T1 sequence: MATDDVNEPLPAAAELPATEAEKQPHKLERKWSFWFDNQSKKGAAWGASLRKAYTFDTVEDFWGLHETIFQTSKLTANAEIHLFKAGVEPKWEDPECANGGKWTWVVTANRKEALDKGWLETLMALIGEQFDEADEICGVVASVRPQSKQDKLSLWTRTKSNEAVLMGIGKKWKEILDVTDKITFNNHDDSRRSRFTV

[2] = target: T2, YFP-Arabidopsis eIF(iso)4E (Arabidopsis thaliana) (UniProt O04663); assay: co-IP
T2 sequence: T1 sequence

Row | Substance | binding [1] | binding [2]
1 | TuMV VPg-AD (B42 activation domain fusion) (Turnip mosaic virus (TuMV)) | binds | –
2 | 6xHIS-TuMV VPg-6xHIS-3xFLAG (Turnip mosaic virus (TuMV)) | – | binds
